Values from PubChem BioAssay AID720505 (Drosophila RNAi Screening Center, 2013)
Purpose: 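Fly regulators or components of the CRAC channel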 (primary screen). System: Drosophila S2R+ cells. Reagents: long dsRNA against Drosophila genes. Conditions: thapsigargin (2 µM) in calcium-free buffer to empty internal stores, then 2 mM calcium added back. Measurement: 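Fluo-4 signal in 384-well plates read on a FLIPR after thapsigargin (2 µM, calcium-free) store depletion and 2 mM calcium add-back; unnormalised mean endpoint per well; screen run twice, selected wells retested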. Direction: calcium signal and retest calcium signal: higher = more calcium entry after store depletion. Rule for the call: 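Knock-downs counted as hits when calcium entry dropped relative to STIM1 positive and Rho1 negative controls present on each plate; roughly 1500 genes called, with reductions of differing size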. Calls: active = called as lowering calcium entry; inactive = not called.
In all, the deposit lists about 20,000 reagents; this is a random part of those with a known target gene and a result. In the full data, about 2,100 (10%) are marked active. 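Raw plate signals without normalisation; calls rest on control-based scores that were not deposited; replicate 2 separates called from uncalled poorly.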 The record does not give: the amount of reagent, the time to read-out.

target	amplicon	calcium signal, replicate 1	calcium signal, replicate 2	retest calcium signal, replicate 1	retest calcium signal, replicate 2	Outcome
CG5861 (GeneID 34965)	DRSC02907	64.2	80.5			active
regucalcin (GeneID 32165)	DRSC20366	69.3	83.5			active
CG16998 (GeneID 38847)	DRSC10235	126	117			inactive
sax (GeneID 35731)	DRSC07675	140	94.9			inactive
HisT (GeneID 35697)	DRSC05051	98.7	120			inactive
HisT (GeneID 35697)	DRSC05052	86.8	90.4			inactive
HisT (GeneID 35697)	DRSC06405	120	75.2			inactive
lectin-24A (GeneID 53543)	DRSC00604	140	78.8			inactive
Chchd2 (GeneID 32701)	DRSC19931	112	129	111	109	inactive
lark (GeneID 38811)	DRSC11362	126	112			inactive
CG8568 (GeneID 32728)	DRSC20113	142	103			inactive
CG16964 (GeneID 34605)	DRSC02546	90.8	97.9			inactive
CG13323 (GeneID 36433)	DRSC06360	79.1	118			inactive
Gpdh1 (GeneID 33824)	DRSC03336	98.8	192	110	105	inactive
Gpdh1 (GeneID 33824)	DRSC21666	154	106			inactive
CG1812 (GeneID 33049)	DRSC20557	146	144			inactive
CG14419 (GeneID 31276)	DRSC17916	98	127			inactive
glo (GeneID 41431)	DRSC16145	138	108			inactive
Boh1 (GeneID 338395)	DRSC14487	80.5	100			inactive
Noc3 (GeneID 40870)	DRSC12535	88.6	150			inactive
CG9877 (GeneID 37666)	DRSC04587	136	230			inactive
VGlut (GeneID 33427)	DRSC00733	200	153	7162	168	inactive
VGlut (GeneID 33427)	DRSC21821	151	68.2			inactive
CG11403 (GeneID 31072)	DRSC18532	91.8	171			inactive
Sh3beta (GeneID 38820)	DRSC11001	107	74.5			inactive
Sh3beta (GeneID 38820)	DRSC22053	111	205			inactive
Sry-alpha (GeneID 43571)	DRSC16867	108	121	6597	124	inactive
CG9360 (GeneID 32128)	DRSC20180	110	91.6			inactive
CG10055 (GeneID 40862)	DRSC12503	115	137			inactive
CG12699 (GeneID 36944)	DRSC06162	102	101			inactive
Stat92E (GeneID 42428)	DRSC16870	194	265			inactive
CG5001 (GeneID 33308)	DRSC00673	147	143			inactive
CG32104 (GeneID 39413)	DRSC10127	80.9	62.3			inactive
CG32104 (GeneID 39413)	DRSC10128	119	85.1			inactive
Past1 (GeneID 41569)	DRSC16784	211	102			inactive
EAChm (GeneID 39637)	DRSC10010	87.8	211			inactive
TwdlS (GeneID 43209)	DRSC14737	109	143			inactive
fz4 (GeneID 31659)	DRSC18780	270	146			inactive
Hinfp (GeneID 47718)	DRSC18484	63.4	147			active
scramb1 (GeneID 326186)	DRSC09724	111	112			inactive
scramb1 (GeneID 326186)	DRSC10667	77.6	98.4			active
scramb1 (GeneID 326186)	DRSC10668	127	98.6			inactive
sun (GeneID 44046)	DRSC20140	90.8	115			inactive
Alms1a (GeneID 31393)	DRSC18558	84.8	250			active
pont (GeneID 53439)	DRSC17029	129	90.4			inactive
cdi (GeneID 42289)	DRSC16922	111	224			inactive
CG17672 (GeneID 4379911)	DRSC10278	94.7	94.7			inactive
Kpc2 (GeneID 37261)	DRSC07635	183	150			inactive
CG5321 (GeneID 32399)	DRSC19940	68.5	115			active
CG5321 (GeneID 32399)	DRSC22802	78.2	107			inactive
CG34164 (GeneID 5740394)	DRSC02837	87	112			inactive
CG14835 (GeneID 38832)	DRSC10205	90.4	53			inactive
CG3704 (GeneID 31043)	DRSC18174	84.7	144			inactive
CG3704 (GeneID 31043)	DRSC18645	72.8	129			inactive
Pdfr (GeneID 31234)	DRSC18614	82.6	109			inactive
CG33467 (GeneID 2768834)	DRSC05525	135	165			inactive
CG33467 (GeneID 2768834)	DRSC22651	53.6	122			inactive

Not a retest: 4 of the entries above.
target	amplicon	calcium signal, replicate 1	calcium signal, replicate 2	retest calcium signal, replicate 1	retest calcium signal, replicate 2	Outcome
Past1 (GeneID 41569)	DRSC16784	211	102			inactive
EAChm (GeneID 39637)	DRSC10010	87.8	211			inactive
TwdlS (GeneID 43209)	DRSC14737	109	143			inactive
fz4 (GeneID 31659)	DRSC18780	270	146			inactive
